Source: US20050058603A1, “Drug delivery system based on polymer nanoshells” (Case Western Reserve University, priority 2003, published 2005)

System: MCF-7 cells
Assay: Cytotoxicity study of DOX loaded shells vs free doxorubicin solution and empty shells
Settings: incubated in culture media for 5 days

`COc1cccc2c1C(=O)c1c(O)c3c(c(O)c1C2=O)C[C@@](O)(C(=O)CO)C[C@@H]3O[C@H]1C[C@H](N)[C@H](O)[C@H](C)O1.Cl` [Doxorubicin solution, Doxorubicin] showed an IC50 of 0.012 ± 0.002 µM.
